Results on two substances are retold here after article PMC7000777.

The chains behind the UniProt entries cited, without tags or fusion partners.
UniProt P06239: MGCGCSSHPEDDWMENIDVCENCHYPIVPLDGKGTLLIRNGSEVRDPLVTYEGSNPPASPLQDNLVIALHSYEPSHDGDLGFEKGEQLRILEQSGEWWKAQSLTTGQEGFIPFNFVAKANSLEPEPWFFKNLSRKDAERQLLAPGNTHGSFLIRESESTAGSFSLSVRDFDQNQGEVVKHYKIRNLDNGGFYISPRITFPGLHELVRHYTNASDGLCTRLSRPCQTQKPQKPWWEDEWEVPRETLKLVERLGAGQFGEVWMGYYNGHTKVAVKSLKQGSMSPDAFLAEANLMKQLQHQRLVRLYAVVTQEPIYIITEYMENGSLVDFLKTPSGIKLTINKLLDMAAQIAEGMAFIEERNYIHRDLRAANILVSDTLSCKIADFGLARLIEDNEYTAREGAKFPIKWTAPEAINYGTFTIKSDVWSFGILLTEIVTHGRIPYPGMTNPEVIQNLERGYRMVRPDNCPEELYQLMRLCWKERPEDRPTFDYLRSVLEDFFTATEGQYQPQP

The test concerns the target T1, BirA*-fused ICOS (mouse) (UniProt Q9WVS0).
T1 sequence: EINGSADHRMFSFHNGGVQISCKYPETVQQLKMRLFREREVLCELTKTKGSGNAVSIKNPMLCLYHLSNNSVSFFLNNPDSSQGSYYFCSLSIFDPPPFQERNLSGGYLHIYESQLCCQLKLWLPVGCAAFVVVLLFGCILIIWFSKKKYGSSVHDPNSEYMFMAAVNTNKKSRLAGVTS
In words: proximity labelling; BioID: Jurkat cells with BirA*-fused ICOS or ICOS-CD44TM, 50 μM biotin for 24 h; RIPA lysis; streptavidin Dynabeads; blotted for p85, Lck and Fyn.

These are yes or no findings as the source states them, for the method shown. In cells and extracts the contact can be indirect. Here binding means that the protein was enriched with, or labelled near, the bait; the list need not be complete. Where a sequence is shown, tags or fusion partners need not be part of it.

On to “regulatory subunit p85 of phosphoinositide-3 kinase (PI3K) (human (endogenous in Jurkat))”, for which the binding entry was “binds”.
Regarding “tyrosine kinase Lck (endogenous) (from UniProt P06239 1-509) (enzyme)”, the binding result is on record as “binds weakly”.
